In patent US20220251188A1:
These are yes or no findings as the source states them, for the method shown. Some binding calls cover weakened binding; strength is not graded here.

Assays:
[1] = biological target: T1, Biotinylated LAG-3 (Sino biological, Catalog No.: 16498-HNAH-B) (UniProt P18627); assay: direct ELISA after 6 freezing/thawing cycles
T1 sequence (biotinylated (site not stated), looked up): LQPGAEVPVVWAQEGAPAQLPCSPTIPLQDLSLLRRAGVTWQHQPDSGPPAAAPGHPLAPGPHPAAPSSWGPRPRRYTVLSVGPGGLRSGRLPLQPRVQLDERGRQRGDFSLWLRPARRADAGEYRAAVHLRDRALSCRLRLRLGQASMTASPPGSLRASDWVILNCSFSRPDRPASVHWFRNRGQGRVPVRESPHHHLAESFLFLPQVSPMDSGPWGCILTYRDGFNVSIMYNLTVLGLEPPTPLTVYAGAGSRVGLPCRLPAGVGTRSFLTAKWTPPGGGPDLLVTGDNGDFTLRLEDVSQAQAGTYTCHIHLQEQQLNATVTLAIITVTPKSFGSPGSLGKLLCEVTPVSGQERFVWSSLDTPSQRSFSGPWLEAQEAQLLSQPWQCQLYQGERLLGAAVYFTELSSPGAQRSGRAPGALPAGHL

[2] = biological target: T1, Biotinylated LAG-3 (Sino biological, Catalog No.: 16498-HNAH-B); assay: direct ELISA after shaking at 650 rpm for 5 days
[3] = biological target: T1, Biotinylated LAG-3 (Sino biological, Catalog No.: 16498-HNAH-B); assay: direct ELISA after shaking at 650 rpm for 3 days
[4] = biological target: T1, Biotinylated LAG-3 (Sino biological, Catalog No.: 16498-HNAH-B); assay: direct ELISA after illumination at 600 Lux for 5 days
[5] = biological target: T1, Biotinylated LAG-3 (Sino biological, Catalog No.: 16498-HNAH-B); assay: direct ELISA after standing at 40 C for 1 month (formulas 8, 9 and 10)

Measured: binding

B1: anti-LAG-3 monoclonal antibody ADI-31853 (antibody, human IgG4 S228P, kappa, F234A L235A, V domains shown)
VH: QLQLQESGPGLVKPSETLSLTCTVSGGSIYSESYYWGWIRQPPGKGLEWIGSIVYSGYTYYNPSLKSRVTISVDTSKNQFSLKLSSVTAADTAVYYCARVRTWDAAFDIWGQGTMVTVSS
VL: DIQMTQSPSSLSASVGDRVTITCQASQDISNYLNWYQQKPGKAPKLLIYDASNLETGVPSRFSGSGSGTDFTFTISSLQPEDIATYYCQQVLELPPWTFGGGTKVEIKR
binds: all assays above
